For four compounds, AC50, z-score and max response results are on record in PubChem BioAssay (NCATS).

A short description of assay [1]: S16 Schwann cell PMP22 intronic element beta-lactamase assay (AID 624044). Particulars: S16 rat Schwann cells, PMP22 element beta-lactamase FRET, 24 h. In outline:
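Beta-lactamase reporter under a PMP22 intronic regulatory element in stable S16 rat Schwann cells; 24 h compound exposure. 460 nm blue signal normalized between DMSO (0%) and potassium clavulanate, with 535 nm FRET tracking viability; curves classed by r2 and response.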

A short description of assay [2]: qHTS drug screen for cell cycle checkpoint inhibitors in PARPi-resistant BRCA-mutant ovarian cancer cell lines. (AID 1963452). The following applies: PEO1/OlaR viability, CellTiter-Glo luminescence, 96 h. In outline: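 PEO1, PEO4 and PEO1/OlaR ovarian cancer cells, 600 per well, exposed 96 h at 37C to a dilution series. Viability read by CellTiter-Glo luminescence, normalized to DMSO and empty wells; activity summarized as Z-AUC.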
(Quantitative high-throughput screening tests each substance at several concentrations.)

The nature of assay [3]: qHTS for identification of novel therapeutic agents for treatment of microphthalmiaassociated transcription factor (MiT) renal cell carcinoma (RCC) (AID 1963991). The following applies: CellTiter-Glo, 48 h; for z-score: stronger effect = lower value. In short, it runs like this:
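Three TFE3-fusion RCC cell lines (UOK109, UOK124, UOK145), 500 cells/well, were exposed to the 1912-compound MIPE 4.0 library for 48 hours at 37 C. Viability was read by CellTiter-Glo luminescence, normalised to DMSO (100%) and empty wells (0%), with 11-concentration curve fits.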

Assay [4] in a line: qHTS Assay for Inhibitors of PDE-IV (AID 607). Particulars: HEK293 ACTOne CNG channel cells, membrane potential fluorescence; measured here: parental cell counter-screen. In outline:
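ACTOne HEK293 cells carry a modified cAMP-gated CNG channel and express endogenous PDE4; plated 1000 cells/well, compounds up to 22.9 uM final. Membrane-potential dye fluorescence (ex 535/em 590) was read; parental cells received 10 uM forskolin + 100 uM RO 20-1724.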

Assay [5] in a line: qHTS assay for small molecule antagonists of peroxisome proliferator-activated receptor delta signaling (AID 588535).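 Also: cells co-treated with a PPAR-delta agonist as stimulator during compound exposure.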 Particulars: HEK293T PPARd-UAS-bla, beta-lactamase FRET ratio, 18 h; 460 nm channel. In short, it runs like this:
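Inhibition of PPAR-delta response element-driven beta-lactamase expression is measured in HEK293T cells exposed to a compound titration series for 18 hrs at 37 C. Half-maximal inhibition comes from Hill equation fitting.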

Assay [6] can be described thus: qHTS assay for small molecule antagonists of peroxisome proliferator-activated receptor gamma signaling (AID 588537). The following applies: HEK293 PPARg-UAS-bla, beta-lactamase ratio, antagonist mode; measured here: W460 blue channel. In short, it runs like this:
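Compounds are tested as concentration series for inhibition of rosiglitazone-driven (50 nM) reporter expression in GeneBLAzer PPAR-gamma-UAS-bla HEK293 cells. After 16 h at 37 C, CCF4 substrate is added for 2 h at room temperature and blue/green fluorescence is measured.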

A short description of assay [7]: qHTS assay for small molecule agonists of retinoid X receptor alpha signaling (AID 588544). Particulars: HEK293T RXRa-UAS-bla, beta-lactamase reporter, 18 h; 530 nm emission.
Where [8] appears, read: measured here: 460 nm blue channel.
The mark [9] stands for this setting: measured here: 530 nm viability channel.
Setting [10] is: measured here: PEO1 parental viability.
The mark [11] stands for this setting: TFE3-RCC UOK109 viability, measured here: UOK109 Z-AUC.
Setting [12] is: TFE3-RCC viability, measured here: UOK124 Z-AUC.
Where [13] appears, read: TFE3-RCC viability, measured here: UOK124 cell viability.
The mark [14] stands for this setting: TFE3-RCC viability, measured here: UOK145 Z-AUC.

The other results are listed elsewhere or left out. Further columns of the screen follow, without active or inactive calls. For part of these data: Compounds called inactive in the main read-out are mostly missing here. For part of these data: Words in brackets tell the shape of the fitted curve; partial curves, single points and poor fits give uncertain potencies.

Take `COc1cc(NCc2ccc3nc(N)nc(N)c3c2C)cc(OC)c1OC`: the AC50 – broadly, the midpoint of the concentration-response curve, whichever way the signal moves – in assay [1] (setting [8]) was 1.12 µM [falling, full curve, poor fit]; in assay [1] (setting [9]) it was 1.78 µM [falling, full curve]; in assay [2] (setting [10]) it was 21.9 µM [falling, single point]; in assay [2] (measured here: PEO4 viability), 4.9 µM [falling, partial curve]; in assay [3] (setting [13]), 0.59 µM [falling, full curve]; in assay [3] (TFE3-RCC viability, measured here: UOK145 cell viability), 2.35 µM [falling, full curve]. Also, the values for the z-score in assay [3] (setting [11]), in assay [3] (setting [12]) and in assay [3] (setting [14]) were -0.268, -2.24 and -1.37, respectively.
As to `Clc1ccc(COC(Cn2ccnc2)c2ccc(Cl)cc2Cl)c(Cl)c1` (stereo not drawn), the AC50 was 7.94 µM [rising, partial curve] in assay [4]; 17.4 µM [falling, single point] in assay [2] (setting [10]); 21.9 µM [falling, single point] in assay [2] (measured here: PEO4 viability); 20.9 µM [falling, partial curve] in assay [3] (setting [13]). For the same compound, the z-score is -0.0878 in assay [3] (setting [11]), 0.0175 in assay [3] (setting [12]) and 0.967 in assay [3] (setting [14]).
With `Clc1ccc(C(Cn2ccnc2)OCc2ccsc2Cl)c(Cl)c1` (stereo not drawn), the AC50 is 22.4 µM [falling, partial curve, poor fit] in assay [1] (setting [8]); 1.78 µM [falling, full curve] in assay [1] (setting [9]); 21.9 µM [falling, single point] in assay [2] (setting [10]); 13.8 µM [falling, partial curve, poor fit] in assay [2] (measured here: PEO4 viability); 33.2 µM [falling, single point] in assay [3] (setting [13]). Also, the z-score in assay [3] (setting [11]) was 0.00699; in assay [3] (setting [12]), 0.176; in assay [3] (setting [14]), 1.98.
In the case of `N=C(N)c1ccc(OCCCCCOc2ccc(C(=N)N)cc2)cc1`, the max response in assay [5] is -1.66%; in assay [7], 15.6%. Besides, the AC50 was 63.1 µM [rising, single point] in assay [6]; 11 µM [falling, partial curve, poor fit] in assay [2] (setting [10]); 13.8 µM [falling, partial curve] in assay [2] (measured here: PEO4 viability); 20.9 µM [falling, partial curve] in assay [3] (setting [13]). The z-score is -0.143 in assay [3] (setting [11]), 0.217 in assay [3] (setting [12]) and 0.0638 in assay [3] (setting [14]).
